Experimental data: paper PMC7819943, “Rice protein-binding microarrays: a tool to detect cis-acting elements near promoter regions in rice”
Some of the results follow.

These sequences were tested against T1, OsSMF1 (Oryza sativa, UniProt Q6ZLB0 1-436) (assay: protein-binding microarray (RPBM); PBS, 2% BSA, 51.3 ng/ul salmon testes DNA, 50 uM zinc acetate, 200 nM TF, 25 C, 1 h; high values mean tight binding). Conditions: protein: recombinant; tags: N-terminal polyhistidine and DsRed monomer fusion (pET32a); chain copies: 2; label: CyDye5-dUTP incorporated in the synthesized complementary strand; 3' TTTTT single-stranded linker to array surface; dsDNA, one strand shown.
T1 sequence: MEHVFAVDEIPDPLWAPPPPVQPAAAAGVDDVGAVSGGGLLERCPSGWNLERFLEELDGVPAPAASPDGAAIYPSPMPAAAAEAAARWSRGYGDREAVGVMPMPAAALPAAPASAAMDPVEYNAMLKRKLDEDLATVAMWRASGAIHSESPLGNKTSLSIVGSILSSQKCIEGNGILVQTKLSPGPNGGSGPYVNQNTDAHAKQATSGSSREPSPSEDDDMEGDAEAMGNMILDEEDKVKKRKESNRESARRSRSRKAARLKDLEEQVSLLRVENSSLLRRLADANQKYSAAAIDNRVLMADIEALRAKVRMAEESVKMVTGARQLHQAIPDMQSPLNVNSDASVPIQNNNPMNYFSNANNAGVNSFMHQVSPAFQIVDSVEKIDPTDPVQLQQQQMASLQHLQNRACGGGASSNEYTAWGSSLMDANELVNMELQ
In short: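 The binding signal for each feature is its fluorescence intensity in arbitrary units. An Axon 4000B scanner was used to read a custom Agilent array that had been made double-stranded with Cy5-dUTP primer extension, blocked with 2% BSA, incubated at 25 °C for 1 h with 200 nM protein in PBS, 2% BSA, salmon testes DNA and 50 µM zinc acetate, and washed. The protein was an N-terminal polyhistidine–DsRed transcription factor fusion from E. coli BL21-CodonPlus, purified on Ni–NTA.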

Sequence | binding signal
GCTCCGGGTCTGGGAACCTGCTGTCACAGCCGTGACCGTGCGGAGTCACCTAGTGCAG | 3820 fluorescence intensity (a.u.)
GGTGGTTGGTCTTGTCATTGCTCGTGCATGTCAGCACAGTCGGAGTCACCTAGTGCAG | 4580 fluorescence intensity (a.u.)
CAATAAACAAATCAAAATAAAGCTAACACGTGGCATGCCACGGAGTCACCTAGTGCAG | 13700 fluorescence intensity (a.u.)
TTACTCTGACTCCCTAGCTAGCACAGGTGGTCGTACGTTGCGGAGTCACCTAGTGCAG | 3480 fluorescence intensity (a.u.)
AAAGTTAACTTGATCAAACTTGCTTAACATAAGATGTGATCGGAGTCACCTAGTGCAG | 3160 fluorescence intensity (a.u.)
ATCTACTTATGTCACCCACTCTTAGCCAATATCATTCGCTCGGAGTCACCTAGTGCAG | 4110 fluorescence intensity (a.u.)
TTATGTGATAGGTTCTCCGTGATCGCCGCCGACGCCGACGCGGAGTCACCTAGTGCAG | 3370 fluorescence intensity (a.u.)
GCGGTATGACAACTGTGTAGCCTAGTCATCGTAGTAGCCACGGAGTCACCTAGTGCAG | 4280 fluorescence intensity (a.u.)
CGGCACCACCAGTTGTCCGGCATGCGATGTGGTACCGAGACGGAGTCACCTAGTGCAG | 49300 fluorescence intensity (a.u.)
AACCAGAATTTCCCAGGAGGAACACGCAGATTAGCAAAGGCGGAGTCACCTAGTGCAG | 3270 fluorescence intensity (a.u.)
CTAGCGACGAAACATTTCAACACGTCAACAAATGGTCGGGCGGAGTCACCTAGTGCAG | 3310 fluorescence intensity (a.u.)
CGGCTTACTGTGTGTCCGTGGTGTCATCGTTGCTGGTCGCCGGAGTCACCTAGTGCAG | 4740 fluorescence intensity (a.u.)
TCCTAATGCGTCATATTTTCAACTAAATCGTACTCGTCGACGGAGTCACCTAGTGCAG | 3960 fluorescence intensity (a.u.)
GTCTTTCTTGTGCTAGCTCGAGGCACAACATCCCCACATGCGGAGTCACCTAGTGCAG | 4240 fluorescence intensity (a.u.)
GTGTGACACGTCACTCTCGTTCCGGCTCGGCCAGTCGCCGCGGAGTCACCTAGTGCAG | 19900 fluorescence intensity (a.u.)
GTTAACAACGAGATCTTATGCGTGACATGTGTGAAAATTTCGGAGTCACCTAGTGCAG | 3690 fluorescence intensity (a.u.)
GGTTTGTCTCCAAGGCCAAATCTCCGACCCAGGCATCATACGGAGTCACCTAGTGCAG | 3880 fluorescence intensity (a.u.)
GTGGCCTTGAACCGTCCATAGCGCGATCTGCGGTCCAGGACGGAGTCACCTAGTGCAG | 3640 fluorescence intensity (a.u.)
TAAAATTACGAGTTGTCAGTGCTGTGCCTATATGTGCACGCGGAGTCACCTAGTGCAG | 3650 fluorescence intensity (a.u.)
ATACTAGAGCTACGCGTAGAGGCGGGAAGAGACGAGGGCGCGGAGTCACCTAGTGCAG | 3180 fluorescence intensity (a.u.)
CTCTCTCCCTCCTCCTCCAACTCCACATCGATCAGCAGCACGGAGTCACCTAGTGCAG | 3330 fluorescence intensity (a.u.)
CAGAGCAGGGGAGGGGAGGGGAGGGGATCCTGGTGAGCCTCGGAGTCACCTAGTGCAG | 6310 fluorescence intensity (a.u.)
GCAATACGGCCTGAAATACCACTTTTACAACTCCCTTCACCGGAGTCACCTAGTGCAG | 5340 fluorescence intensity (a.u.)

Two entries from above, with tabs.
Sequence	binding signal
GGTGGTTGGTCTTGTCATTGCTCGTGCATGTCAGCACAGTCGGAGTCACCTAGTGCAG	4580 fluorescence intensity (a.u.)
GTCTTTCTTGTGCTAGCTCGAGGCACAACATCCCCACATGCGGAGTCACCTAGTGCAG	4240 fluorescence intensity (a.u.)
